# Measurements reported in PubChem BioAssay.
# Some of the results follow. Shown are side measurements of this screen, not its main read-out; they come without a call. For some of these results: Compounds called inactive in the main read-out are mostly missing here.
# What was measured:
# PubChem AID 1586 = details: yeast two-hybrid polyglutamine protein interaction, reporter readout; measured here: averaged growth delta OD
# [1] = enhancers of SMN2 over SMN1 splicing, cell-based, SMN2/SMN1 luciferase reporters (AID 1598); details: SMN2 vs SMN1 luciferase splicing reporter cells, at 10 µM; SMN1 luciferase ratio: measured here: SMN1 luciferase reporter average; SMN2 luciferase ratio: measured here: SMN2 luciferase reporter average, stronger effect = higher value
# [2] = protection against mutant huntingtin cytotoxicity, PC12 cells, LDH release (AID 1610); details: PC12 mutant huntingtin toxicity, final LDH at 4 uM, stronger effect = lower value
SMILES,signal change (36 h minus 0 h) (PubChem AID 1586),SMN1 luciferase ratio [1],SMN2 luciferase ratio [1],normalised LDH release [2]
C[C@H](CCC(=O)O)[C@H]1CCC2C3C(=O)CC4CC(=O)CC[C@]4(C)C3CC(=O)[C@@]21C (some centres not stated),0.0732,0.9,0.81,0.933
CC(C)NNC(=O)c1ccncc1,0.188,0.91,0.97,0.576
Nc1ccc(S(=O)(=O)NC(=O)c2ccccc2)cc1,0.108,0.89,0.95,1.07
CN(C)/N=N/c1nc[nH]c1C(N)=O,0.187,1.01,0.79,0.719
CCN(Cc1ccncc1)C(=O)C(CO)c1ccccc1 (configuration not stated),0.175,0.84,0.79,0.997
CCCC(C(=O)OCCN(CC)CC)(c1ccccc1)c1ccccc1,0.118,0.86,0.89,1.1
OCc1cc2c(cn1)[nH]c1ccccc12,0.0885,0.94,0.83,0.935
CSCCC(NC=O)C(=O)NC(CC(C)C)C(=O)NC(Cc1ccccc1)C(=O)O (configuration not stated),0.123,0.83,0.9,0.64
C[N+]1(CCCCC[N+]2(C)CCCC2)CCCC1,0.0481,0.43,0.46,0.932
COc1cc2c(c(OC)c1OC)-c1ccc(OC)c(=O)cc1[C@@H](NC(C)=O)CC2,0.158,1.37,1.36,0.937
Cc1cccc(Nc2ccccc2C(=O)O)c1C,0.193,0.92,0.92,0.894
O=C(O)c1cccnc1,0.057,1.01,0.92,0.941
CC(=O)OCC(=O)[C@@]1(O)CC[C@H]2C3CCC4=CC(=O)CCC4(C)[C@@]3(F)[C@@H](O)CC21C (some centres not stated),0.0992,0.91,0.92,0.341

# Rewritten tab-delimited: part of the list above.
SMILES	signal change (36 h minus 0 h) (PubChem AID 1586)	SMN1 luciferase ratio [1]	SMN2 luciferase ratio [1]	normalised LDH release [2]
CCCC(C(=O)OCCN(CC)CC)(c1ccccc1)c1ccccc1	0.118	0.86	0.89	1.1
OCc1cc2c(cn1)[nH]c1ccccc12	0.0885	0.94	0.83	0.935
